Screen size: about 320,000 compounds; about 2,100 (0.66%) were called active. This list was built around the results that the source calls inconclusive (neither active nor inactive); the mix of calls is not that of the screen. Calls follow the shape of the dose curve; as a rule, active = well fitted inhibition curve with a large enough effect in the signal ratio, with a control signal flat (not every such curve was filed as active); inconclusive = small, poorly fitted or top-dose-only effect, or effect the other way, or a change in a side signal; inactive = flat fitted curve, though single readings scatter; the % refers to the signal ratio. Potencies beside an inconclusive call are fits to weak or partial responses and may not hold up.
experiment: qHTS Assay for Lipid Storage Modulators in Drosophila S3 Cells; details: BODIPY lipid droplet fluorescence, 18-24 h, cells fed with added oleic acid; lipid storage change, negative = inhibition: at 46.1 µM (top of the series) unless noted
Outline: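 Drosophila S3 cells got compounds at several concentrations plus oleic acid (400 uM solution). Laser-scanning cytometry with 488 nm excitation read lipid droplets at 500-530 nm and cells at 575-640 nm. Percent activity was relative to 20 uM Triacsin C.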
% is scaled to controls: 0 for no effect and ±100 for the full control effect; potency is read from the fitted curve at half-maximal effect.

Q: Which Potency does the source give for `CC1CCCCN1S(=O)(=O)c1ccc(NC(=O)c2cccs2)cc1` (centres undefined) here?
A: inconclusive: 9.2 µM [activator, partial curve]

Q: Which lipid storage change, negative = inhibition does the source give for `CC(C)c1cc(C(C)C)c(S(=O)(=O)NNC(=O)c2ccncc2)c(C(C)C)c1` here?
A: inconclusive: 25.3%

Q: With `CCOc1ccc(S(=O)(=O)N2CCCCC2)cc1NC(=O)C1CCC1` as the compound, how does the lipid storage change, negative = inhibition read?
A: inconclusive: 33.6%

Q: Which lipid storage change, negative = inhibition does the source give for `COc1ccc(-n2cc(CNCCN3CCOC3=O)c(-c3ccccc3Cl)n2)cc1` here?
A: inconclusive: 8.93%

Q: With `CCOc1ccc(NC(=O)CN(C)C(=O)c2cc3c(s2)CCC(C)C3)cc1OCC` (centres undefined) as the compound, how does the Potency read?
A: inconclusive: 8.2 µM [falling, partial curve]

Q: With `O=C(NCC(c1ccco1)N1CCOCC1)C1CCCCC1` (centres undefined) as the compound, how does the Potency read?
A: inconclusive: 29.1 µM [falling, single point]

Q: With `CC(C)c1ccc(/C=C(/C#N)c2nnc(NC(=O)c3ccccc3)s2)cc1` as the compound, how does the Potency read?
A: inconclusive: 0.058 µM [activator, full curve, poor fit]

Q: With `O=C(COc1ccccc1)Nc1ccc(S(=O)(=O)NCc2ccco2)cc1` as the compound, how does the lipid storage change, negative = inhibition read?
A: inconclusive: -35.5% [at 0.0737 µM]

Q: Which Potency does the source give for `CCN(CC)C(c1ccc(F)cc1)c1nnnn1CC1CCCO1` (centres undefined) here?
A: active: 18.4 µM

Q: Which “lipid storage change, negative = inhibition” value does the source give for `COc1ccc(/C=N/OCC(=O)N2CC3(C)CC2CC(C)(C)C3)cc1` (centres undefined) here?
A: inactive: 0.198%

Q: For `CC(C)C(C)NC(=O)CN1C(=O)NC(c2ccccc2)(c2ccccc2)C1=O` (centres undefined), which Potency is on record?
A: inconclusive: 29.1 µM [activator, single point]

Q: For `CCOC(=O)Nc1cccc(NC(=O)c2ccccc2F)c1`, which lipid storage change, negative = inhibition is on record?
A: inconclusive: -6.64% [at 9.22 µM]

Q: Which lipid storage change, negative = inhibition does the source give for `COc1ccc(-c2nc3c4ccccc4ccn3c2CN2CCOCC2)cc1OC` here?
A: inconclusive: -26.4%

Q: Which Potency does the source give for `CCOC(=O)N/N=C(/C)c1ccc(N2C(=O)C3CCCCC3C2=O)cc1` (centres undefined) here?
A: inconclusive: 0.731 µM [falling, single point]

Q: For `CCOC(=O)c1c(NC(=O)c2ccco2)sc2c1CCCCC2`, which lipid storage change, negative = inhibition is on record?
A: inconclusive: -36.1% [at 9.22 µM]

Q: With `O=C(CNC1CCCCCC1)c1cccs1` as the compound, how does the lipid storage change, negative = inhibition read?
A: inconclusive: 8.43%

Q: With `O=C(Nc1ccc(Cl)c(Cl)c1)Nc1cc(S(=O)(=O)N2CCOCC2)ccc1N1CCCC1` as the compound, how does the lipid storage change, negative = inhibition read?
A: inconclusive: 73.1%

Q: Which lipid storage change, negative = inhibition does the source give for `COc1ccc(S(=O)(=O)N2CCN(c3ccc(F)cc3)CC2)cc1C(=O)N1CCCC1` here?
A: inconclusive: 22.1%

Q: Which “lipid storage change, negative = inhibition” value does the source give for `Cc1cc(NC(=O)c2ocnc2C)no1` here?
A: inactive: 9%

Q: Which lipid storage change, negative = inhibition does the source give for `CCn1c(=O)c2cc(C(=O)N(C)c3cc(C)ccc3OC)sc2c2ccccc21` here?
A: inconclusive: -7.82%

Q: For `CC1CN(S(=O)(=O)c2ccc(C(=O)OCc3ccc(C#N)cc3)cc2)CC(C)O1` (centres undefined), which Potency is on record?
A: inconclusive: 1.84 µM [activator, partial curve]

Q: Which lipid storage change, negative = inhibition does the source give for `COc1ccc(C(=O)NCc2nnc(SCC(=O)N3CCCC3)o2)cc1OC` here?
A: inconclusive: -2.14%

Q: With `CCCCN(C(=O)C1=NN(c2ccccc2)C(=O)CC1)c1c(N)n(CC(C)C)c(=O)[nH]c1=O` as the compound, how does the Potency read?
A: inconclusive: 16.4 µM [activator, single point]

Q: For `C/C(=N\NC(=O)COc1cccc(Br)c1)c1ccc2c(c1)OCCO2`, which Potency is on record?
A: inconclusive: 6.51 µM [activator, single point]

Q: Which Potency does the source give for `CNC[C@H](CC1CCCCC1)NC[C@H](CO)NCCc1cccc(C(F)(F)F)c1` here?
A: inconclusive: 0.517 µM [activator, full curve, poor fit]

Q: With `NS(=O)(=O)c1ccc(CCNC(=O)c2cnccn2)cc1` as the compound, how does the lipid storage change, negative = inhibition read?
A: inconclusive: -5.23%

Q: Which lipid storage change, negative = inhibition does the source give for `CCn1c(SCC(N)=O)nnc1-c1ccc(S(=O)(=O)N2CCN(C)CC2)cc1` here?
A: inconclusive: -4.89%

Q: For `O=C(c1cccc([N+](=O)[O-])c1)c1cc2ccccc2o1`, which lipid storage change, negative = inhibition is on record?
A: inconclusive: 37.2%

Q: Which lipid storage change, negative = inhibition does the source give for `COc1ccc([C@@H]2CC=C(C(=O)O)[C@H](c3cccc(Cl)c3)N2S(=O)(=O)c2ccccc2C)cc1` here?
A: inconclusive: 7.19%

Q: With `CCOC(=O)Cc1ccc(NC(=O)c2ccc([N+](=O)[O-])cc2)cc1` as the compound, how does the lipid storage change, negative = inhibition read?
A: inconclusive: 13.9% [at 9.22 µM]

Q: Which lipid storage change, negative = inhibition does the source give for `COc1ccc2sc(N(CCCN(C)C)C(=O)c3nc4ccccc4s3)nc2c1` here?
A: inconclusive: 10.3%

Q: For `C#CCOCCOCCOCCNc1nc(N2CCN(C(=O)CCCCCCCCCCNC(=O)[C@H]([C@@H](C)CC)n3cc(CCCCCN)nn3)CC2)nc(N2CCN(C(=O)CCCCCCCCCCNC(=O)[C@@H]([C@H](C)O)n3cc(C)nn3)CC2)n1`, which Potency is on record?
A: inconclusive: 29.1 µM [cytotoxic, single point]

Q: Which lipid storage change, negative = inhibition does the source give for `CCOC(=O)N1CCN(C(=O)C2CCN(S(=O)(=O)CC)CC2)CC1` here?
A: inconclusive: 12%

Q: Which Potency does the source give for `CCc1ccc2[nH]c(O)c(N=NC3=NC(=O)CS3)c2c1` here?
A: inconclusive: 0.103 µM [falling, full curve, poor fit]

Q: With `Cn1c(=O)c(C(=O)NCCCc2ccccc2)c(O)c2ccccc21` as the compound, how does the Potency read?
A: inconclusive: 29.1 µM [activator, single point]

Q: With `CN(CC(=O)Nc1ccccc1Br)C(=O)c1cc(Cl)nc2ccccc12` as the compound, how does the lipid storage change, negative = inhibition read?
A: inconclusive: 2.86%

Q: With `COc1ccccc1C1C(C(=O)c2cc3ccccc3o2)=C(O)C(=O)N1c1cc(C)on1` (centres undefined) as the compound, how does the lipid storage change, negative = inhibition read?
A: inconclusive: 21%

Q: Which lipid storage change, negative = inhibition does the source give for `COc1ccccc1NC(=O)Cc1csc(NC(=S)Nc2ccccc2)n1` here?
A: inconclusive: 7.59%

Q: With `O=C(CN(c1ccc(F)cc1)S(=O)(=O)c1ccc2c(c1)OCCO2)NCc1ccncc1` as the compound, how does the lipid storage change, negative = inhibition read?
A: inconclusive: -22.1%

Q: For `Cc1cccc(OCCNC(=O)c2ccc(Cl)c(S(=O)(=O)NCc3cccnc3)c2)c1`, which lipid storage change, negative = inhibition is on record?
A: inconclusive: -51.7%

Q: For `O=C(COC(=O)C1CCN(c2ccc(C(F)(F)F)cn2)CC1)NC1CCCCC1`, which lipid storage change, negative = inhibition is on record?
A: inconclusive

Q: With `O=C(Nc1nc2c(F)cccc2s1)c1ccc([N+](=O)[O-])o1` as the compound, how does the Potency read?
A: inconclusive: 1.16 µM [falling, full curve]

Q: With `COc1cc(C(=O)OCC(=O)NC(=O)NCc2ccccc2)ccc1OC(F)F` as the compound, how does the Potency read?
A: inconclusive: 2.91 µM [activator, single point]

Q: For `O=C(CS(=O)CC(=O)N(CC(=O)NC1CCCC1)c1ccccc1F)Nc1ccc(F)cc1` (centres undefined), which Potency is on record?
A: inconclusive: 4.11 µM [activator, full curve]

Q: For `CN(Cc1cnn(C)c1)C(=O)CC1C(=O)NCCN1Cc1cccc(Oc2ccccc2)c1` (centres undefined), which lipid storage change, negative = inhibition is on record?
A: inconclusive: 7.87%

Q: For `Cn1cc(S(=O)(=O)NC2CCCCC2)c(=O)n(C)c1=O`, which lipid storage change, negative = inhibition is on record?
A: inconclusive: -13.9%

Q: Which lipid storage change, negative = inhibition does the source give for `CNC(=S)N(CCc1ccc(OC)c(OC)c1)C1CC(=O)N(c2ccccc2)C1=O` (centres undefined) here?
A: inconclusive: 6.54%

Q: With `COCCCN1C(=O)c2ccc(C(=O)OCC(=O)NCc3ccccc3OC)cc2C1=O` as the compound, how does the lipid storage change, negative = inhibition read?
A: inconclusive: -60.9%

Q: Which lipid storage change, negative = inhibition does the source give for `COc1ccc(NC2=NCC(=O)N2c2ccccc2)c(OC)c1` here?
A: inconclusive: -30.4%

Q: With `CCOc1ccc(NC(=O)C2CCCN(C(=O)Nc3ccccc3)C2)cc1` (centres undefined) as the compound, how does the lipid storage change, negative = inhibition read?
A: inconclusive: -65.5%

Q: For `COc1ccc(N2C(=O)CSC23C(=O)N2c4c(cccc43)C(C)=CC2(C)C)cc1` (centres undefined), which lipid storage change, negative = inhibition is on record?
A: inconclusive: 299%

Q: With `O=c1[nH]cnc2scc(-c3ccccc3)c12` as the compound, how does the “lipid storage change, negative = inhibition” value read?
A: inactive: 2.34%

Q: With `CCn1nccc1C(=O)Nc1ccc(C)c(C)c1` as the compound, how does the Potency read?
A: inconclusive: 8.2 µM [activator, partial curve]

Q: With `CCN(CC)c1ccc(/C=N/n2c(-c3ccccc3Br)n[nH]c2=S)cc1` as the compound, how does the lipid storage change, negative = inhibition read?
A: inconclusive: 28.2%

Q: For `COc1cccc(-c2csc(N3CCN(S(=O)(=O)c4ccc(F)cc4)CC3)n2)c1`, which lipid storage change, negative = inhibition is on record?
A: inconclusive: 13.1%

Q: With `CCn1c(SCC(=O)N/N=C/c2ccc(C)o2)nnc1-c1ccc(C(C)(C)C)cc1` as the compound, how does the Potency read?
A: inconclusive: 25.9 µM [falling, single point]

Q: For `O=C(CNCc1ccccc1)Nc1cccc(Cl)c1Cl`, which lipid storage change, negative = inhibition is on record?
A: inconclusive: 3.16%

Q: For `COc1ccc2[nH]c3c(c2c1)CCN1C(=O)N([C@@H](C)C(=O)NCCc2ccc(F)cc2)C(=O)[C@]31C`, which lipid storage change, negative = inhibition is on record?
A: inconclusive: -21.5%

Q: Which lipid storage change, negative = inhibition does the source give for `O=C(CCc1nc2ccccc2c(=O)[nH]1)NNC(=O)COc1cccc(F)c1` here?
A: inconclusive: -10.3%

Q: For `Cc1c(C(=O)N2CCN(C(c3ccccc3)c3ccccc3)CC2)oc2ccccc12`, which lipid storage change, negative = inhibition is on record?
A: inconclusive: 11.5%

Q: Which Potency does the source give for `CS(=O)(=O)N(Cc1cc2ccccc2[nH]c1=O)C1CCCCC1` here?
A: inconclusive: 0.92 µM [rising, partial curve]

Q: With `CC(C)CCn1c(=O)c2c(nc3n2CCCN3Cc2ccccc2)n(C)c1=O` as the compound, how does the lipid storage change, negative = inhibition read?
A: inconclusive: -44%

Q: For `COc1cc(CNn2cn[nH]c2=S)cc(Br)c1OCc1ccccc1F`, which lipid storage change, negative = inhibition is on record?
A: inconclusive: 11.8%

Q: For `COc1ccc(CNC(=O)N2CCc3ccccc3C2)cc1`, which Potency is on record?
A: inconclusive: 0.731 µM [activator, full curve, poor fit]

Q: Which lipid storage change, negative = inhibition does the source give for `COc1cc(CN2CCN(Cc3ccc(C)cc3)CC2)c([N+](=O)[O-])cc1OC` here?
A: inconclusive: 28.3%

Q: For `COCCNC(=O)c1cc(-c2ccc(-c3ccccc3)cc2)nc2ccccc12`, which lipid storage change, negative = inhibition is on record?
A: inconclusive: 56.9%

Q: Which lipid storage change, negative = inhibition does the source give for `O=S(=O)(Nc1nc2ccccc2nc1-[n+]1ccccc1)c1ccc(Cl)cc1` here?
A: inconclusive: -29.6%

Q: For `COc1ccccc1-n1cnnc1SCC(=O)c1cc(C)n(Cc2cccs2)c1C`, which lipid storage change, negative = inhibition is on record?
A: inconclusive: 16.6%

Q: For `CCN1CCN(C(=S)Nc2ccc3nc4n(c(=O)c3c2)CCCCC4)CC1`, which lipid storage change, negative = inhibition is on record?
A: inconclusive: 5.47%

Q: Which Potency does the source give for `COc1ccccc1C(=O)NCC(=O)N=Nc1c(O)n(C(C)C)c2ccccc12` here?
A: inconclusive: 3.26 µM [falling, partial curve]

Q: For `CSCCC(NC(N)=O)C(=O)Nc1cccc(C#N)c1` (centres undefined), which lipid storage change, negative = inhibition is on record?
A: inconclusive: 12.4%

Q: Which lipid storage change, negative = inhibition does the source give for `CCCNC(=O)c1ccccc1SCc1c(C)noc1C` here?
A: inconclusive: -83.4%

Q: With `O=C(c1snnc1-c1ccccc1)N1CCOCC1` as the compound, how does the lipid storage change, negative = inhibition read?
A: inconclusive: 5.3% [at 9.22 µM]

Q: With `Cc1cc(NS(=O)(=O)c2ccc(NC(=O)Nc3cccc(C(F)(F)F)c3)cc2)no1` as the compound, how does the Potency read?
A: inconclusive: 6.51 µM [activator, single point]

— PubChem BioAssay AID2685 (National Center for Advancing Translational Sciences (NCATS), 2010)
